Measurements from US20130035289A1, “PHARMACEUTICAL COMPOSITION FOR TREATMENT OF THROMBOSIS-RELATED DISEASES COMPRISING A FRAGMENT OF PROLACTIN (PRL)-GROWTH HORMONE (GH)-PLACENTAL LACTOGEN (PL)-FAMILY PROTEIN” (UNIVERSITE DE LIEGE, priority 2010, published 2013).
These are yes or no findings as the source states them, for the method shown. For some of these results: In cells and extracts the contact can be indirect. Some results given as binding are weak or reduced against the parent protein; the word gives no strength.

Sequences of proteins named here, by UniProt entry; tags and fusion partners are left off. A change or cut given only in a name is not applied to a line headed by its entry. Residues count along the entry.
UniProt P00750, residues 36-562: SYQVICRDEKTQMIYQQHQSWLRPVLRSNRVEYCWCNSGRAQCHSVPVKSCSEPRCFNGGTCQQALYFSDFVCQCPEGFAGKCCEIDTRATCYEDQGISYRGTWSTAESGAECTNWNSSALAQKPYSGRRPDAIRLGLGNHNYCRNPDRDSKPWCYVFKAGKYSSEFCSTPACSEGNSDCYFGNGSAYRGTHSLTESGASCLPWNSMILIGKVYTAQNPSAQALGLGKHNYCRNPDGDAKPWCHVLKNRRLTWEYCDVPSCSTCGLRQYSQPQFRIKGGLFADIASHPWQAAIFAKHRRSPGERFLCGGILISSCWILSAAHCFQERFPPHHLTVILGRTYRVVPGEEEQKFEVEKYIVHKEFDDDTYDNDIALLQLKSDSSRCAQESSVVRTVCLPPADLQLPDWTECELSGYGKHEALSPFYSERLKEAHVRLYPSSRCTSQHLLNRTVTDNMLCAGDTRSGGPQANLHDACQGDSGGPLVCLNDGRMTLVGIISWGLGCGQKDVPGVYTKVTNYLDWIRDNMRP
UniProt P01241: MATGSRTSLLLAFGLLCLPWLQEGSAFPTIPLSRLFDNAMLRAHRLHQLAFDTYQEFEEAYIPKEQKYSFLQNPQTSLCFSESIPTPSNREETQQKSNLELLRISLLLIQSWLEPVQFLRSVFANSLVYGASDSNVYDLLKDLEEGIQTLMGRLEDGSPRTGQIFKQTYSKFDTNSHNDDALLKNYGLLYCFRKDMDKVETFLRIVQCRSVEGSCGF

What was measured:
[1] = target: Endogenous human PAI-1 (HUVEC conditioned medium; human plasma) (human) (UniProt P05121); assay: co-immunoprecipitation with anti-PAI-1 mAb 33H1F7, Western blot (figure legend)
[2] = target: Recombinant wild type human Plasminogen Activator Inhibitor type 1 (PAI-1) (human) (UniProt P05121); assay: as above
[3] = target: Endogenous human PAI-1 (HUVEC conditioned medium; human plasma) (human) (UniProt P05121); assay: co-immunoprecipitation from human plasma, Western blot
[4] = target: T1, Endogenous murine PAI-1 (mouse plasma) (mouse) (UniProt P22777); assay: immunoprecipitation of PAI-1 from mouse plasma, Western blot for 14K GH
T1 sequence (looked up): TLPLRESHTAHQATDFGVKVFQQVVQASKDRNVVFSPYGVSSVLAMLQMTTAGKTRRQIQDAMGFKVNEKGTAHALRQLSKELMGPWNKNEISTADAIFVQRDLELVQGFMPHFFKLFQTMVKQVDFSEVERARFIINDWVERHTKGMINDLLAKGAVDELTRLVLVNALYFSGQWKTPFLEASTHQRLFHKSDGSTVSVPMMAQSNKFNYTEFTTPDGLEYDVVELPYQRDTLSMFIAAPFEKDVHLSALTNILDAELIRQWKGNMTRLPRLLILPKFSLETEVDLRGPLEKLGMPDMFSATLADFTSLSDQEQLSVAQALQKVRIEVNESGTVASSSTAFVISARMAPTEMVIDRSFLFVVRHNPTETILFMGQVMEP

[5] = target: Endogenous human PAI-1 (HUVEC conditioned medium; human plasma) (human) (UniProt P05121); assay: co-immunoprecipitation from HUVEC conditioned medium, Western blot
[6] = target: T1, Endogenous murine PAI-1 (mouse plasma) (mouse); assay: co-immunoprecipitation from mouse plasma, Western blot
[7] = target: Recombinant wild type human Plasminogen Activator Inhibitor type 1 (PAI-1) (human) (UniProt P05121); assay: yeast two-hybrid, 14K hGH Gal4 bait, PAI-1 prey
[8] = target: Endogenous human PAI-1 (HUVEC conditioned medium; human plasma) (human) (UniProt P05121); assay: immunoprecipitation of endogenous PAI-1 from HUVEC conditioned medium (sheet: IP PA-1), Western blot for 14K GH
[9] = target: Recombinant wild type human Plasminogen Activator Inhibitor type 1 (PAI-1) (human) (UniProt P05121); assay: co-immunoprecipitation with anti-PAI-1 mAb 33H1F7, Western blot
[10] = target: Recombinant wild type human Plasminogen Activator Inhibitor type 1 (PAI-1) (human) (UniProt P05121); assay: co-immunoprecipitation with anti-PAI-1 antibody (sheet: IP PA-1), Western blot for 14K GH; recombinant proteins
[11] = target: Endogenous human PAI-1 (HUVEC conditioned medium; human plasma) (human) (UniProt P05121); assay: immunoprecipitation of PAI-1 from human plasma, Western blot for 14K GH
[12] = target: tissue-type plasminogen activator (tPA) (UniProt P00750); assay: SDS-PAGE, silver staining (figure legend)
[13] = target: tissue-type plasminogen activator (tPA) (UniProt P00750); assay: SDS-PAGE with silver stain of the SDS-stable PAI-1/tPA complex

Measured: binding

Recombinant 14K N-terminal human growth hormone (14K hGH) (from UniProt P01241 27-159)
not listed: [12] | [13]
binds: all other assays above

Recombinant wild type human Plasminogen Activator Inhibitor type 1 (PAI-1) (from UniProt P05121 24-402)
binds: [12] | [13]
